According to article PMC9127807 (ACS Chemical Biology, 2022):
Strings that start with PEPTIDE1 are HELM notation: dots part the residues, brackets hold end groups and non-standard residues.

Assay: peptide synthesis
Conditions: conjugation step
[1] = hydrochloride salt (probes 1 and 2)

| Substance | conjugation yield [1] [%] | conjugation yield (hydrochloride salt) [%] |
| --- | --- | --- |
| PEPTIDE1{[TerphCO].[Orn4OH5O-NBD].T.[Hyp].[hTyr34diOH].T.[Pro3OH4Me]}$PEPTIDE1,PEPTIDE1,7:R2-2:R3$$$V2.0 | 55 |  |
| PEPTIDE1{[DMTD].[Orn4OH5EDA].T.[Hyp].[hTyr34diOH-NBD].[Orn3OH].[Pro3OH]}$PEPTIDE1,PEPTIDE1,7:R2-2:R3$$$V2.0 |  | 52 |
| PEPTIDE1{[TerphCO].[Orn4OH5Chol].T.[Hyp].[hTyr34diOH-TMR].T.[Pro3OH4Me]}$PEPTIDE1,PEPTIDE1,7:R2-2:R3$$$V2.0 | 68 |  |
| PEPTIDE1{[TerphCO].[Orn4OH5O-TMR].T.[Hyp].[hTyr34diOH].T.[Pro3OH4Me]}$PEPTIDE1,PEPTIDE1,7:R2-2:R3$$$V2.0 | 73 |  |
| PEPTIDE1{[DMTD].[Orn4OH5EDA].T.[Hyp].[hTyr34diOH-TMR].[Orn3OH].[Pro3OH]}$PEPTIDE1,PEPTIDE1,7:R2-2:R3$$$V2.0 |  | 95 |
| PEPTIDE1{[TerphCO].[Orn4OH5Chol].T.[Hyp].[hTyr34diOH-NBD].T.[Pro3OH4Me]}$PEPTIDE1,PEPTIDE1,7:R2-2:R3$$$V2.0 | 37 |  |
